Measurements: patent US20040219554, “Dna binding protein” (published 2004)
Results from cells or extracts need not show a direct contact. A negative result means that nothing was seen under these conditions. Tags and fusion partners may be left off the protein sequences shown.

Biological target: T1, DUE-B (pGK16B, Gal4 activation domain fusion) (Homo sapiens) (UniProt Q8TEA8)
T1 sequence: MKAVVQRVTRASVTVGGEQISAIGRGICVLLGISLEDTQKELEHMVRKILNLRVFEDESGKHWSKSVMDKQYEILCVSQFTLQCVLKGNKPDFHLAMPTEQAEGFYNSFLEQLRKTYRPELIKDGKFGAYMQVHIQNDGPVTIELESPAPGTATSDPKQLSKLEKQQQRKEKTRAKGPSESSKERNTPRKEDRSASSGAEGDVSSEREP
Assay: one hybrid
Settings: protein in cells, protein details: GAL4 activation domain fusion (pGAD-GH)

Does “ATGAGAAGAATGTTTTTTGCGCTTCATGCCGTGGAATAACACAGCGTAAAAAATCCCGAGGGAATGCACATTGCATATTGCGCGTACGATCATTTCAGG (double strand) [mutant DUE/mutant ARS bait (DMAM)]” bind (no sustained growth, reporter expression eliminated, variant of wild type DUE/ARS bait (DWAW))?
Result: no binding

Does “ATGAGAAGAATGTTTTTTGTTTTTCATGCCGTGGAATAACACAAAATAAAAAATCCCGAGGGAATATACATTATATATTAAATATAGATCATTTCAGG (double strand) [wild type DUE/ARS bait (DWAW)]” bind (robust growth on his- with 3-AT)?
Result: binds
